Data taken from PubChem BioAssay AID912, deposited by NCATS (2007).

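Uptake of anthrax lethal toxin into cultured cells, read by FRET (460/530 nm ratio) and reported from the 460 nm channel; the cell line is not named here.
Each compound was tested as a concentration series from about 0.0005 to 40 µM.
The number is the fitted AC50 of the 460 nm signal alone; lower values mean a more potent effect. A falling signal goes with compounds filed as inhibitors or cytotoxic, a rising one with activators or fluorescent compounds (inferred from the filed classes).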

Values are in µM.
Common to all entries: measured here: 460 nm channel.
This is a side read-out of the assay, for part of the compounds, not drawn at random.
Potencies fitted to partial, single-point or poorly fitting curves are rough.
The first word of each remark tells which way the curve ran; it can be opposite to the aim of the assay.

With COC(=O)[C@@]1(Cc2ccc(F)cc2)[C@H]2c3cc(C(=O)N4CCCC4)n(Cc4cccc5ccccc45)c3C[C@H]2CN1C(=O)c1ccccc1 the assay gave AC50 31.62 µM (falling, single point).
With O=C(/C=N/O)NCC1CCNCC1 the assay gave AC50 12.59 µM (rising, single point).
With c1ccc(C(c2ccccc2)N2CC3(CCNCC3)C2)cc1 the assay gave AC50 10 µM (falling, partial curve).
With COc1ccc(CN(C(=O)c2oc3ccccc3c2C)C2CCS(=O)(=O)C2)cc1 (stereo not shown) the assay gave AC50 12.59 µM (rising, partial curve, poor fit).
With COc1ccc2oc(=O)c(-c3nnc(NCc4ccco4)s3)cc2c1 the assay gave AC50 15.85 µM (rising, single point).
With COc1ccc(C(=O)Nc2ccc3c(c2)OCO3)cc1OC the assay gave AC50 19.95 µM (falling, single point).
With O=C1N=c2ccccc2=C1c1sc(=S)n(CC2CCCO2)c1O (stereo not shown) the assay gave AC50 3.162 µM (rising, partial curve).
With CCCCNC(=O)[C@@H]1Cc2ccccc2N1C(=O)[C@H](N)CC the assay gave AC50 12.59 µM (falling, full curve, poor fit).
With CCC(c1nnnn1C(C)(C)C)N1CCN(c2cc(Cl)ccc2C)CC1 (stereo not shown) the assay gave AC50 3.162 µM (falling, partial curve).
With Cc1[nH]nc2c1C(c1ccccc1)C1=C(CC(C)(C)CC1=O)N2 (stereo not shown) the assay gave AC50 2.512 µM (rising, full curve, poor fit).
With COC(=O)C(C)Sc1nnc(SC(C)C(=O)OC)s1 (stereo not shown) the assay gave AC50 5.012 µM (falling, single point).
With O=C(NCc1ccco1)c1cc2n(n1)C(C(F)(F)F)CC(c1ccc(Br)cc1)N2 (stereo not shown) the assay gave AC50 12.59 µM (falling, partial curve, poor fit).
With Nc1nc2ccccc2n1/N=C/c1ccc(-c2ccccc2)o1 the assay gave AC50 10 µM (falling, single point).
With O=C(Cc1cccs1)Nc1nncs1 the assay gave AC50 0.003981 µM (falling, full curve, poor fit).
With CCOc1ccccc1N(CC(=O)Nc1ccccc1C(=O)OC)S(C)(=O)=O the assay gave AC50 12.59 µM (rising, single point).
With Cc1cccc(NC(=O)CN2C(=O)COc3ccc(Cl)cc32)c1 the assay gave AC50 19.95 µM (falling, partial curve, poor fit).
With CCn1c(=O)c(=O)[nH]c2cc(C(=O)Nc3ccc(S(=O)(=O)N4CCCC4)cc3)ccc21 the assay gave AC50 12.59 µM (rising, partial curve).
With O=C(c1ccc2nc(-c3ccco3)c(-c3ccco3)nc2c1)N1CCC2(CC1)OCCO2 the assay gave AC50 12.59 µM (falling, single point).
With COc1cc(NC(=O)c2cccc(Cl)c2)c(OC)cc1NC(=O)CN1CCOCC1 the assay gave AC50 10 µM (falling, single point).
With CC(=O)NC1=C(OS(=O)(=O)c2ccc(C)cc2)CN(C)C1=O the assay gave AC50 3.162 µM (rising, single point).
With CN1C(=O)c2ccc(N3CCCC3)cc2C1=O the assay gave AC50 0.007943 µM (rising, full curve, poor fit).
With O=C1CC[C@](CCc2nc3ccccc3[nH]2)(c2ccccc2)C(=O)N1 the assay gave AC50 0.631 µM (falling, single point).
With COC(=O)c1cc2c(=O)n3ccccc3nc2n(C(C)C)c1=N the assay gave AC50 3.981 µM (rising, full curve).
With Cc1ccc2nc(NC3=NCN(Cc4cccnc4)CN3)nc(C)c2c1 the assay gave AC50 0.02512 µM (falling, full curve, poor fit).
With CCC1=C/C(=C\c2ccc3c(c2)OCO3)C(=O)S1 the assay gave AC50 0.005012 µM (falling, full curve, poor fit).
With CCc1cc(C(=O)Cc2cnn(-c3ccccc3)c2)c(O)cc1O the assay gave AC50 31.62 µM (falling, single point).
With O=S1(=O)C=C(Sc2nc3cc(Cl)ccc3o2)c2ccccc21 the assay gave AC50 5.012 µM (falling, full curve, poor fit).
With C=C1CSc2nc(=O)c3c4c(sc3n21)CCCC4 the assay gave AC50 1.585 µM (rising, full curve).
With COc1ccc2[nH]c(=O)c(CN(C(=O)C3CCCO3)c3ccc(C)cc3)cc2c1 (stereo not shown) the assay gave AC50 12.59 µM (rising, partial curve).
With CCNc1ncc2nc(C)c(=O)n(Cc3ccc(F)cc3)c2n1 the assay gave AC50 10 µM (rising, single point).
With CCCn1c(SCc2ccc(Cl)cc2)nc2c1c(=O)[nH]c(=O)n2C the assay gave AC50 7.943 µM (rising, partial curve).
With CCOC(=O)c1c(NC(=O)c2nn(CC)cc2Br)sc(C)c1C the assay gave AC50 5.012 µM (falling, single point).
With CC(C)(C)n1nnnc1C(c1cccc(C#N)c1)N1CCCc2ccccc21 (stereo not shown) the assay gave AC50 5.012 µM (falling, full curve).
With COc1ccc(CCNC(=O)c2oc3ccc(S(=O)(=O)N4CCOCC4)cc3c2C)cc1OC the assay gave AC50 5.012 µM (rising, single point).
With O=C(CCCC1=NS(=O)(=O)c2ccccc2N1)N1CCN(c2ccc(Cl)cc2)CC1 the assay gave AC50 25.12 µM (falling, single point).
With Cc1cc(C)c2c(CC(=O)NCc3ccco3)coc2c1 the assay gave AC50 3.162 µM (falling, partial curve).
With CCNc1ncc2nc(CCc3ccccc3)c(=O)n(CCOC)c2n1 the assay gave AC50 3.981 µM (rising, full curve).
With O=c1c2ccccc2nc(N2CCN(c3ccccc3)CC2)n1Cc1ccccc1 the assay gave AC50 6.31 µM (falling, partial curve).
With CC1(c2ccc(OC(F)F)cc2)NC(=O)N(CC(=O)Nc2ccc3c(c2)OCO3)C1=O (stereo not shown) the assay gave AC50 5.012 µM (falling, partial curve).